# Measured values published in the supplement of paper PMC11098740.
# The list shows a part of the results. Repeats are few or missing, and single values can be far off.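 The assay uses a mixed pool of 41 HAP1 clones in which 61 cancer-associated proteins bear intron-inserted fluorescent tags, and clones are distinguished by image pattern. Results are compared against DMSO-treated control wells, and the BRD4 degrader dBET6 is the positive control.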
# Biological target: BRD4 (intron 10 mScarlet tag, HAP1) (UniProt O60885)
# Experiment: BRD4 median nuclear fluorescence intensity change vs DMSO (log2 fold change); higher = more BRD4 protein
# Conditions: 6 h
row,Structure (SMILES),BRD4 median nuclear fluorescence intensity change (log2)
1,CO[C@@H]1[C@@H](OC(N)=O)[C@@H](O)[C@H](Oc2ccc3c(O)c(NC(=O)c4ccc(O)c(CC=C(C)C)c4)c(=O)oc3c2C)OC1(C)C [novobiocin] (10 µM),0.139
2,CCOC(=O)C(C)(C)Oc1ccc(Cl)cc1 [clofibrate] (10 µM),-0.0306
3,Nc1nc2c(ncn2COC(CO)CO)c(=O)[nH]1 [ganciclovir] (10 µM),0.0193
4,CC(C)NCC(O)c1ccc(O)c(O)c1 (configuration not stated) [isoproterenol] (10 µM),0.0737
5,C[N+](C)(C)CCOC(N)=O [carbachol] (9.99977 µM),0.108
6,CC(=O)O[C@H]1C(=O)[C@@]2(C)[C@H]([C@H](OC(=O)c3ccccc3)[C@]3(O)C[C@H](OC(=O)[C@H](O)[C@@H](NC(=O)c4ccccc4)c4ccccc4)C(C)=C1C3(C)C)[C@]1(OC(C)=O)CO[C@@H]1C[C@@H]2O [paclitaxel] (0.065394 µM),0.048
7,CCCN[C@H]1CCc2nc(N)sc2C1 [pramipexole] (10.00012856 µM),0.0647
8,CN(C)CCCC1(c2ccc(F)cc2)OCc2cc(C#N)ccc21 (configuration not stated) [citalopram] (10 µM),0.0578
9,CN1C(CCl)Nc2cc(Cl)c(S(N)(=O)=O)cc2S1(=O)=O (configuration not stated) [methyclothiazide] (9.99974 µM),0.0791
10,NC(=O)OCC(COC(N)=O)c1ccccc1 [felbamate] (10 µM),-0.025
11,NN1CCOC1=O [3-amino-2-oxazolidinone] (5.429755364 µM),0.0776
12,CN1CCN(CCCN2c3ccccc3Sc3ccc(C(F)(F)F)cc32)CC1 [trifluoperazine] (10.00057696 µM),0.115

# Among those listed so far, these contain fluorine.
row,Structure (SMILES),BRD4 median nuclear fluorescence intensity change (log2)
8,CN(C)CCCC1(c2ccc(F)cc2)OCc2cc(C#N)ccc21 (configuration not stated) [citalopram] (10 µM),0.0578
12,CN1CCN(CCCN2c3ccccc3Sc3ccc(C(F)(F)F)cc32)CC1 [trifluoperazine] (10.00057696 µM),0.115
